These are literature values, as cited in paper PMC6195125 (European journal of medicinal chemistry, 2018).

The test system of the data set is mammalian cell. The following applies: read-out: Cytotoxicity IC50; cited from earlier work.

As to `O=C(CCCCCCC(=O)Nc1ccccc1)NO` [SAHA, suberoylanilide hydroxamic acid], the IC50 (commonly the concentration that gives 50% inhibition) was 5.17 to 5.5 µM.
